In publication PMC8103087:
No constants are given. Whether binding was seen depends on the method and setting. In cells and extracts the contact can be indirect. Some binding calls cover weakened binding; strength is not graded here. For part of these data: Where a sequence is shown, tags or fusion partners need not be part of it.

Chains of the proteins cited; added tags and fusions are not shown.
UniProt Q13547: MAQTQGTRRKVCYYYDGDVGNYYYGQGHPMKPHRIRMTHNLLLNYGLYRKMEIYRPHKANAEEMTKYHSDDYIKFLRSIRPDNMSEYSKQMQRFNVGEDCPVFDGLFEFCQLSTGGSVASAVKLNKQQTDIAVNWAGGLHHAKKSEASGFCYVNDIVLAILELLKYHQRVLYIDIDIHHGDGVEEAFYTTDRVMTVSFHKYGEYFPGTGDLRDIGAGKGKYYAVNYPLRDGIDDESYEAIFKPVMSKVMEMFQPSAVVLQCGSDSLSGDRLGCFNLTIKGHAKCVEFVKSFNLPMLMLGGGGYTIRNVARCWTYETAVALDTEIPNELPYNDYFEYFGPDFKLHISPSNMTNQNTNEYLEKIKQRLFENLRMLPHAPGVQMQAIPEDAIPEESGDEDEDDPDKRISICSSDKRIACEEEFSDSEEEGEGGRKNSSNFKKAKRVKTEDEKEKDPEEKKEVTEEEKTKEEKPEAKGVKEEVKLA
UniProt O15379: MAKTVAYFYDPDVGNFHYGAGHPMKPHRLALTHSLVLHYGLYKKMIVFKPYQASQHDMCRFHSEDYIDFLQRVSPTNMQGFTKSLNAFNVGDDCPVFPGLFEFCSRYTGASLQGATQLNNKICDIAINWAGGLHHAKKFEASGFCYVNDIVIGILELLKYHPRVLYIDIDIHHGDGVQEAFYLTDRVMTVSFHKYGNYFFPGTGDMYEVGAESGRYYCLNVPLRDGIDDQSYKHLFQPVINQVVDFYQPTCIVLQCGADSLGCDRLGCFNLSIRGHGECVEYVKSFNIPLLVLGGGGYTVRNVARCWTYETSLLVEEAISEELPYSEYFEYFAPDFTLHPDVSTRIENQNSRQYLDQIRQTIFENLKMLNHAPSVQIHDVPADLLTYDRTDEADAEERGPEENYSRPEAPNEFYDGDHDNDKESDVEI

What was measured:
flag-HDAC1 = flag-HDAC1 (UniProt Q13547); assay: co-IP; HEK293T cells transfected with vector or flag-HDAC3 / flag-HDAC1 plasmid; lysis in 50 mM Tris-HCl pH 7.4, 0.8% NP40, 10% glycerol, 150 mM NaCl at 4°C; anti-Flag M2 magnetic beads, 60 min, five washes; Western blot for menin
flag-HDAC3 = flag-HDAC3 (UniProt O15379); assay: as above
flag-JunD = target: T1, flag-JunD (UniProt P17535); assay: co-IP; HEK293T cells transfected with vector or flag-JunD plasmid, treated with DMSO, MI-503 (30, 100, 300 nM) or MI-463 (30, 100, 300 nM); lysis in 50 mM Tris-HCl pH 7.4, 0.8% NP40, 10% glycerol, 150 mM NaCl at 4°C; anti-Flag M2 magnetic beads; Western blot
T1 sequence: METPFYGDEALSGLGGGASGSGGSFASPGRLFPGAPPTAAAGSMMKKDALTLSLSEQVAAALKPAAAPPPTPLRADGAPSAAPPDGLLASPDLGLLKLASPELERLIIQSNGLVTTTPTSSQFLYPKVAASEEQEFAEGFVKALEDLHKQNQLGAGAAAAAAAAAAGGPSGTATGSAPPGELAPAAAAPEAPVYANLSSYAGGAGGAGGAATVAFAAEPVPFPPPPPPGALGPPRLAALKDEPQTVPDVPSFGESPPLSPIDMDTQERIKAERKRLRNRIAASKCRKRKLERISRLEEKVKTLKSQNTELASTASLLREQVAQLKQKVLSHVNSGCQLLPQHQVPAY

Measured: binding

B1: menin (protein, UniProt O00255 1-610)
chain: MGLKAAQKTLFPLRSIDDVVRLFAAELGREEPDLVLLSLVLGFVEHFLAVNRVIPTNVPELTFQPSPAPDPPGGLTYFPVADLSIIAALYARFTAQIRGAVDLSLYPREGGVSSRELVKKVSDVIWNSLSRSYFKDRAHIQSLFSFITGTKLDSSGVAFAVVGACQALGLRDVHLALSEDHAWVVFGPNGEQTAEVTWHGKGNEDRRGQTVNAGVAERSWLYLKGSYMRCDRKMEVAFMVCAINPSIDLHTDSLELLQLQQKLLWLLYDLGHLERYPMALGNLADLEELEPTPGRPDPLTLYHKGIASAKTYYRDEHIYPYMYLAGYHCRNRNVREALQAWADTATVIQDYNYCREDEEIYKEFFEVANDVIPNLLKEAASLLEAGEERPGEQSQGTQSQGSALQDPECFAHLLRFYDGICKWEEGSPTPVLHVGWATFLVQSLGRFEGQVRQKVRIVSREAEAAEAEEPWGEEAREGRRRGPRRESKPEEPPPPKKPALDKGLGTGQGAVSGPPRKPPGTVAGTARGPEGGSTAQVPAPTASPPPEGPVLTFQSEKMKGMKELLVATKINSSAIKLQLTAQSQVQMKKQKVSTPSDYTLSFLKRQRKGL
binds: all assays above
